Data as given in PMC8035787.
These are yes or no findings as the source states them, for the method shown. In cells and extracts the contact can be indirect. Some binding calls cover weakened binding; strength is not graded here. Where a sequence is shown, tags or fusion partners need not be part of it.

Chains of the proteins cited; added tags and fusions are not shown.
UniProt P35638: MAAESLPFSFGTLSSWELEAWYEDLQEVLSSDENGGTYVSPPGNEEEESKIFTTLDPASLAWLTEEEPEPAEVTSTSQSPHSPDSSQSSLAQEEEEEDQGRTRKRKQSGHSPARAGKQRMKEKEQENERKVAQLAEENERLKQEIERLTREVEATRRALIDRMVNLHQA

Target: T1, Argininosuccinate synthase 1 with Flag tag (ASS1-Flag) (UniProt P00966)
T1 sequence: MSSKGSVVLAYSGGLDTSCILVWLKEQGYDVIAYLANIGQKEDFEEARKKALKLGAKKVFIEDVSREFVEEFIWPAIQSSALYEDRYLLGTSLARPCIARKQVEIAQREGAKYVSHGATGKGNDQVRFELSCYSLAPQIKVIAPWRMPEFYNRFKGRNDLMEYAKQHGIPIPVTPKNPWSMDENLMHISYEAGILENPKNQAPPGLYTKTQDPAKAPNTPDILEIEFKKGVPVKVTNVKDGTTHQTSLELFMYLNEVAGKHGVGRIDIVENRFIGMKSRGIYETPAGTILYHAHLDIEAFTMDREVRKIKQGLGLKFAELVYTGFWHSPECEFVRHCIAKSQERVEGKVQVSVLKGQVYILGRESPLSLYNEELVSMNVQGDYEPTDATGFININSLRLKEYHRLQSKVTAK
Assay: co-IP; lysates (2 mg/500 ul) of Huh7 cells transfected with ASS1-Flag, precipitated with anti-Flag at 4 °C overnight (Pierce Co-immunoprecipitation Kit); immunoblot with anti-PERK, ATF4 and CHOP; cells with and without induction of ER stress

Which binding does the source give for “C/EBP homologous protein (CHOP; DNA damage inducible transcript 3) (from UniProt P35638 1-169)” here?
The binding was “binds”.
